Results from paper PMC12274486, “A glyoxal-specific aldehyde signaling axis in Pseudomonas aeruginosa that influences quorum sensing and infection” (Nature Communications, 2025).
These are yes or no findings as the source states them, for the method shown. Some entries that bind do so weakly or less than the wild type. Sequences can lack the tags named with a protein.

Target: ArqI superfolder GFP fusion, wild type (Pseudomonas aeruginosa MPAO1)
Assay: FRAP (fluorescence recovery after photobleaching); sfGFP fusions in live P. aeruginosa cells on agarose pads, 0.02% arabinose, 23 °C; effective diffusion constants

B1: ArqI superfolder GFP fusion, wild type (protein)
chain: MTYHVLVQFDVPSDKREAFAAAGLFDANGSLQNEPGTLRFEVIRDENNRNRFYLDEVYEDEAAFLQHCRNETIARFYELIDSYAFGPLFLFKGYRVEG
In the case of B1, the binding is reported as “binds”.
